In PubChem BioAssay AID212 (DTP/NCI, 2004) one finds T/C and survivor count data, which are given here for 13 compounds.

The test relates to BDF1 mice, colon carcinoma 38 sc, T/C %. As to the kind of experiment: NCI In Vivo Anticancer Drug Screen. Data for tumor model Colon Carcinoma 38 (subcutaneous) in B6D2F1 (BDF1) mice. Conditions: for T/C: evaluated on day 20. In outline:
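Mice with transplanted tumors are treated with compound or vehicle. Survival or tumor size is then measured in both groups. The ratio of treated to control gives the reported figure.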

Setting [1] is: T/C endpoint: median tumor weight (est.), dose: 50.0 mg/kg/injection, schedule: Q07DX002 (ip), vehicle: Klucel (hydroxypropylcellulose) (HPC), higher T/C = larger tumour.
Where [2] appears, read: T/C endpoint: median tumor weight (est.), dose: 200.0 mg/kg/injection, schedule: Q07DX002 (ip), vehicle: saline with Tween-80, higher T/C = larger tumour.
Setting [3] is: T/C endpoint: median tumor weight (est.), dose: 100.0 mg/kg/injection, schedule: Q07DX002 (ip), vehicle: saline, higher T/C = larger tumour.
[4] abbreviates: T/C endpoint: median tumor weight (est.), dose: 6.25 mg/kg/injection, schedule: Q07DX002 (ip), vehicle: saline, higher T/C = larger tumour.

The list is a part of this screen's results and no random one: it gathers tests that were run many times, whatever their T/C, doses with no T/C, and many T/C values between a quarter and a half above the control. Further doses and runs are listed elsewhere. T/C: endpoint of the treated group in % of that of the vehicle group. Schedule codes are those of the source, read here as Q, the interval in days (D) or hours (H), X, the number of doses. Some T/C values carry the count of animals alive at the toxicity check (mostly the fifth day); where none is given, no animal had died by that day. Some entries were tested several times; the results are listed from low to high. Some doses have a count of surviving animals in place of a T/C: the source holds a T/C of zero for them, seemingly a mark for toxic or unscored doses. Survivors were counted at the toxicity check, usually on the fifth day, unless a day is given; later deaths do not show.

Take `O=C(Nc1ccc(Cl)c(Cl)c1)Nc1c(Oc2ccc(Cl)c(Cl)c2)ccc(Cl)c1S(=O)(=O)O`: the T/C runs as follows: (T/C endpoint: median tumor weight (est.), dose: 25.0 mg/kg/injection, schedule: Q07DX002 (ip), vehicle: Klucel (hydroxypropylcellulose) (HPC), higher T/C = larger tumour) 136 % of control; under setting [1], 139 % of control [9 of 10 alive].

`CCC1OCC(C(Cl)CCl)O1` (centres undefined): the T/C (T/C endpoint: median tumor weight (est.), dose: 100.0 mg/kg/injection, schedule: Q07DX002 (ip), vehicle: Klucel (hydroxypropylcellulose) (HPC), higher T/C = larger tumour) was 125 and 140 % of control [9 of 10 alive on day 20]; the T/C (T/C endpoint: median tumor weight (est.), dose: 200.0 mg/kg/injection, schedule: Q07DX002 (ip), vehicle: Klucel (hydroxypropylcellulose) (HPC), higher T/C = larger tumour) was 138 % of control [9 of 10 alive on day 20]; the T/C (T/C endpoint: median tumor weight (est.), dose: 400.0 mg/kg/injection, schedule: Q07DX002 (ip), vehicle: Klucel (hydroxypropylcellulose) (HPC), higher T/C = larger tumour) was 126 [7 of 10 alive on day 20] and 131 % of control. The survivor count (T/C endpoint: median tumor weight (est.), dose: 800.0 mg/kg/injection, schedule: Q07DX002 (ip), vehicle: Klucel (hydroxypropylcellulose) (HPC), higher T/C = larger tumour) is 0 of 10 on day 20.

On to `CC(C)NCC(O)COc1cccc2ccccc12` (centres undefined), for which the T/C was 133 % of control (T/C endpoint: median tumor weight (est.), dose: 16.0 mg/kg/injection, schedule: Q07DX002 (ip), vehicle: Klucel (hydroxypropylcellulose) (HPC), higher T/C = larger tumour) and 144 % of control (T/C endpoint: median tumor weight (est.), dose: 32.0 mg/kg/injection, schedule: Q07DX002 (ip), vehicle: Klucel (hydroxypropylcellulose) (HPC), higher T/C = larger tumour).

For `Cc1cc(=O)n2c3c(c4c(cc13)c(CN(C)C)cc(=O)n4C)OC2`, the survivor count under setting [2] is 1 of 10 on day 20.

Regarding `CCOC(=O)c1cn(C)c2c1C(O)=C(C(=O)OC)CC(=O)N2`, the T/C under setting [2] is 131 % of control.

As for `C=C(C)/C([O-])=N/[N+](C)(C)CC(O)CCCCCCCCCCCC` (centres undefined), the survivor count (T/C endpoint: median tumor weight (est.), dose: 800.0 mg/kg/injection, schedule: Q01DX001 (ip), vehicle: saline, higher T/C = larger tumour) is 0 of 10 on day 20.

For `COc1cccc2c1C(=O)c1c(O)c3c(c(O)c1C2=O)CC(O)(C(=O)CO)CC3OC1CC(N)C(O)C(C)O1` (centres undefined), the survivor count is, setting by setting: (T/C endpoint: median survival time, dose: 250.0 mg/kg/injection, schedule: Q07DX002 (iv), vehicle: saline, higher T/C = longer survival) 0 of 10 on day 92; (T/C endpoint: median tumor weight (est.), dose: 162.0 mg/kg/injection, schedule: Q07DX002 (ip), vehicle: water, higher T/C = larger tumour) 4 of 10 on day 20; (T/C endpoint: median tumor weight (est.), dose: 200.0 mg/kg/injection, schedule: Q07DX002 (ip), vehicle: saline, higher T/C = larger tumour) 3 of 10 on day 20; (T/C endpoint: median tumor weight (est.), dose: 324.0 mg/kg/injection, schedule: Q07DX002 (ip), vehicle: water, higher T/C = larger tumour) 0 of 10 on day 20; (T/C endpoint: median tumor weight (est.), dose: 400.0 mg/kg/injection, schedule: Q07DX002 (ip), vehicle: saline, higher T/C = larger tumour) 0 of 10 on day 20; (T/C endpoint: median tumor weight (est.), dose: 648.0 mg/kg/injection, schedule: Q07DX002 (ip), vehicle: saline, higher T/C = larger tumour) 0 of 10 on day 20. For the same compound, for the setting “T/C endpoint: median tumor weight (est.), dose: 648.0 mg/kg/injection, schedule: Q07DX002 (ip), vehicle: water, higher T/C = larger tumour”, the survivor count is 0 of 10 on day 20. Moreover, the T/C (T/C endpoint: median tumor weight (est.), dose: 50.0 mg/kg/injection, schedule: Q07DX002 (ip), vehicle: water, higher T/C = larger tumour) is 127 % of control.

Consider `Nc1ccccc1N`, for which the T/C under setting [1] is 133 % of control.

With `NC(CCl)=NCC12CC3CC(CC(C3)C1)C2`, the T/C runs as follows: (T/C endpoint: median tumor weight (est.), dose: 12.5 mg/kg/injection, schedule: Q07DX003 (ip), vehicle: Klucel (hydroxypropylcellulose) (HPC), higher T/C = larger tumour) 132 % of control; (T/C endpoint: median tumor weight (est.), dose: 50.0 mg/kg/injection, schedule: Q07DX003 (ip), vehicle: Klucel (hydroxypropylcellulose) (HPC), higher T/C = larger tumour) 141 % of control.

As for `OC(CCl)CN1CC[N+]2(CC1)CC[N+]1(CCN(CC(O)CCl)CC1)CC2` (centres undefined), the T/C under setting [3] was 132 % of control.

For `C=CS(=O)(=O)c1ccccc1`, the T/C under setting [4] is 145 % of control; the T/C (T/C endpoint: median tumor weight (est.), dose: 25.0 mg/kg/injection, schedule: Q07DX002 (ip), vehicle: saline, higher T/C = larger tumour) is 125 % of control [9 of 10 alive]; the T/C under setting [3] was 140 % of control [9 of 10 alive]. The survivor count under setting [2] is given as 1 of 10 on day 20.

In the case of `C[n+]1c(-c2cccc3ccccc23)c2cc(N)ccc2c2ccccc21`, the T/C (T/C endpoint: median tumor weight (est.), dose: 3.12 mg/kg/injection, schedule: Q07DX002 (ip), vehicle: saline, higher T/C = larger tumour) is 132 % of control and the T/C under setting [4] was 128 % of control. Moreover, the survivor count by setting is: (T/C endpoint: median tumor weight (est.), dose: 50.0 mg/kg/injection, schedule: Q07DX002 (ip), vehicle: saline, higher T/C = larger tumour) 1 of 10 on day 20 and 3 of 10 on day 20; (T/C endpoint: median tumor weight (est.), dose: 50.0 mg/kg/injection, schedule: Q07DX002 (ip), vehicle: suspension in saline, higher T/C = larger tumour) 6 of 10 on day 20; under setting [3], 0 of 10 on day 20; (T/C endpoint: median tumor weight (est.), dose: 100.0 mg/kg/injection, schedule: Q07DX002 (ip), vehicle: suspension in saline, higher T/C = larger tumour) 0 of 10 on day 20.

As to `COc1cc(C)c2c(c1C=O)Oc1c(c(C)c(O)c3c1C(O)OC3=O)OC2=O` (centres undefined), the T/C (T/C endpoint: median tumor weight (est.), dose: 100.0 mg/kg/injection, schedule: Q07DX003 (ip), vehicle: suspension in saline, higher T/C = larger tumour) was 125 % of control.
